The values that follow come from article PMC6821171.

B1: AF4/FMR2 family member 4 (protein, UniProt Q9UHB7 1-1163)
chain: MNREDRNVLRMKERERRNQEIQQGEDAFPPSSPLFAEPYKVTSKEDKLSSRIQSMLGNYDEMKDFIGDRSIPKLVAIPKPTVPPSADEKSNPNFFEQRHGGSHQSSKWTPVGPAPSTSQSQKRSSGLQSGHSSQRTSAGSSSGTNSSGQRHDRESYNNSGSSSRKKGQHGSEHSKSRSSSPGKPQAVSSLNSSHSRSHGNDHHSKEHQRSKSPRDPDANWDSPSRVPFSSGQHSTQSFPPSLMSKSNSMLQKPTAYVRPMDGQESMEPKLSSEHYSSQSHGNSMTELKPSSKAHLTKLKIPSQPLDASASGDVSCVDEILKEMTHSWPPPLTAIHTPCKTEPSKFPFPTKESQQSNFGTGEQKRYNPSKTSNGHQSKSMLKDDLKLSSSEDSDGEQDCDKTMPRSTPGSNSEPSHHNSEGADNSRDDSSSHSGSESSSGSDSESESSSSDSEANEPSQSASPEPEPPPTNKWQLDNWLNKVNPHKVSPASSVDSNIPSSQGYKKEGREQGTGNSYTDTSGPKETSSATPGRDSKTIQKGSESGRGRQKSPAQSDSTTQRRTVGKKQPKKAEKAAAEEPRGGLKIESETPVDLASSMPSSRHKAATKGSRKPNIKKESKSSPRPTAEKKKYKSTSKSSQKSREIIETDTSSSDSDESESLPPSSQTPKYPESNRTPVKPSSVEEEDSFFRQRMFSPMEEKELLSPLSEPDDRYPLIVKIDLNLLTRIPGKPYKETEPPKGEKKNVPEKHTREAQKQASEKVSNKGKRKHKNEDDNRASESKKPKTEDKNSAGHKPSSNRESSKQSAAKEKDLLPSPAGPVPSKDPKTEHGSRKRTISQSSSLKSSSNSNKETSGSSKNSSSTSKQKKTEGKTSSSSKEVKEKAPSSSSNCPPSAPTLDSSKPRRTKLVFDDRNYSADHYLQEAKKLKHNADALSDRFEKAVYYLDAVVSFIECGNALEKNAQESKSPFPMYSETVDLIKYTMKLKNYLAPDATAADKRLTVLCLRCESLLYLRLFKLKKENALKYSKTLTEHLKNSYNNSQAPSPGLGSKAVGMPSPVSPKLSPGNSGNYSSGASSASASGSSVTIPQKIHQMAASYVQVTSNFLYATEIWDQAEQLSKEQKEFFAELDKVMGPLIFNASIMTDLVRYTRQGLHWLRQDAKLIS
B2: Interleukin enhancer-binding factor 3 (protein, UniProt Q12906 1-894)
chain: MRPMRIFVNDDRHVMAKHSSVYPTQEELEAVQNMVSHTERALKAVSDWIDEQEKGSSEQAESDNMDVPPEDDSKEGAGEQKTEHMTRTLRGVMRVGLVAKGLLLKGDLDLELVLLCKEKPTTALLDKVADNLAIQLAAVTEDKYEILQSVDDAAIVIKNTKEPPLSLTIHLTSPVVREEMEKVLAGETLSVNDPPDVLDRQKCLAALASLRHAKWFQARANGLKSCVIVIRVLRDLCTRVPTWGPLRGWPLELLCEKSIGTANRPMGAGEALRRVLECLASGIVMPDGSGIYDPCEKEATDAIGHLDRQQREDITQSAQHALRLAAFGQLHKVLGMDPLPSKMPKKPKNENPVDYTVQIPPSTTYAITPMKRPMEEDGEEKSPSKKKKKIQKKEEKAEPPQAMNALMRLNQLKPGLQYKLVSQTGPVHAPIFTMSVEVDGNSFEASGPSKKTAKLHVAVKVLQDMGLPTGAEGRDSSKGEDSAEETEAKPAVVAPAPVVEAVSTPSAAFPSDATAEQGPILTKHGKNPVMELNEKRRGLKYELISETGGSHDKRFVMEVEVDGQKFQGAGSNKKVAKAYAALAALEKLFPDTPLALDANKKKRAPVPVRGGPKFAAKPHNPGFGMGGPMHNEVPPPPNLRGRGRGGSIRGRGRGRGFGGANHGGYMNAGAGYGSYGYGGNSATAGYSQFYSNGGHSGNASGGGGGGGGGSSGYGSYYQGDNYNSPVPPKHAGKKQPHGGQQKPSYGSGYQSHQGQQQSYNQSPYSNYGPPQGKQKGYNHGQGSYSYSNSYNSPGGGGGSDYNYESKFNYSGSGGRSGGNSYGSGGASYNPGSHGGYGGGSGGGSSYQGKQGGYSQSNYNSPGSGQNYSGPPSSYQSSQGGYGRNADHSMNYQYR
B3: UPF0568 protein C14orf166 (protein, UniProt Q9Y224 1-244)
chain: MFRRKLTALDYHNPAGFNCKDETEFRNFIVWLEDQKIRHYKIEDRGNLRNIHSSDWPKFFEKYLRDVNCPFKIQDRQEAIDWLLGLAVRLEYGDNAEKYKDLVPDNSKTADNATKNAEPLINLDVNNPDFKAGVMALANLLQIQRHDDYLVMLKAIRILVQERLTQDAVAKANQTKEGLPVALDKHILGFDTGDAVLNEAAQILRLLHIEELRELQTKINEAIVAVQAIIADPKTDHRLGKVGR
B4: Matrin-3 (protein, UniProt P43243 1-847)
chain: MSKSFQQSSLSRDSQGHGRDLSAAGIGLLAAATQSLSMPASLGRMNQGTARLASLMNLGMSSSLNQQGAHSALSSASTSSHNLQSIFNIGSRGPLPLSSQHRGDADQASNILASFGLSARDLDELSRYPEDKITPENLPQILLQLKRRRTEEGPTLSYGRDGRSATREPPYRVPRDDWEEKRHFRRDSFDDRGPSLNPVLDYDHGSRSQESGYYDRMDYEDDRLRDGERCRDDSFFGETSHNYHKFDSEYERMGRGPGPLQERSLFEKKRGAPPSSNIEDFHGLLPKGYPHLCSICDLPVHSNKEWSQHINGASHSRRCQLLLEIYPEWNPDNDTGHTMGDPFMLQQSTNPAPGILGPPPPSFHLGGPAVGPRGNLGAGNGNLQGPRHMQKGRVETSRVVHIMDFQRGKNLRYQLLQLVEPFGVISNHLILNKINEAFIEMATTEDAQAAVDYYTTTPALVFGKPVRVHLSQKYKRIKKPEGKPDQKFDQKQELGRVIHLSNLPHSGYSDSAVLKLAEPYGKIKNYILMRMKSQAFIEMETREDAMAMVDHCLKKALWFQGRCVKVDLSEKYKKLVLRIPNRGIDLLKKDKSRKRSYSPDGKESPSDKKSKTDGSQKTESSTEGKEQEEKSGEDGEKDTKDDQTEQEPNMLLESEDELLVDEEEAAALLESGSSVGDETDLANLGDVASDGKKEPSDKAVKKDGSASAAAKKKLKKVDKIEELDQENEAALENGIKNEENTEPGAESSENADDPNKDTSENADGQSDENKDDYTIPDEYRIGPYQPNVPVGIDYVIPKTGFYCKLCSLFYTNEEVAKNTHCSSLPHYQKLKKFLNKLAEERRQKKET
B5: DNA-binding protein SATB2 (protein, UniProt Q9UPW6 1-733)
chain: MERRSESPCLRDSPDRRSGSPDVKGPPPVKVARLEQNGSPMGARGRPNGAVAKAVGGLMIPVFCVVEQLDGSLEYDNREEHAEFVLVRKDVLFSQLVETALLALGYSHSSAAQAQGIIKLGRWNPLPLSYVTDAPDATVADMLQDVYHVVTLKIQLQSCSKLEDLPAEQWNHATVRNALKELLKEMNQSTLAKECPLSQSMISSIVNSTYYANVSATKCQEFGRWYKKYKKIKVERVERENLSDYCVLGQRPMHLPNMNQLASLGKTNEQSPHSQIHHSTPIRNQVPALQPIMSPGLLSPQLSPQLVRQQIAMAHLINQQIAVSRLLAHQHPQAINQQFLNHPPIPRAVKPEPTNSSVEVSPDIYQQVRDELKRASVSQAVFARVAFNRTQGLLSEILRKEEDPRTASQSLLVNLRAMQNFLNLPEVERDRIYQDERERSMNPNVSMVSSASSSPSSSRTPQAKTSTPTTDLPIKVDGANINITAAIYDEIQQEMKRAKVSQALFAKVAANKSQGWLCELLRWKENPSPENRTLWENLCTIRRFLNLPQHERDVIYEEESRHHHSERMQHVVQLPPEPVQVLHRQQSQPAKESSPPREEAPPPPPPTEDSCAKKPRSRTKISLEALGILQSFIHDVGLYPDQEAIHTLSAQLDLPKHTIIKFFQNQRYHVKHHGKLKEHLGSAVDVAEYKDEELLTESEENDSEEGSEEMYKVEAEEENADKSKAAPAEIDQR
B6: Protein ENL (protein, UniProt Q03111 1-559)
chain: MDNQCTVQVRLELGHRAQLRKKPTTEGFTHDWMVFVRGPEQCDIQHFVEKVVFWLHDSFPKPRRVCKEPPYKVEESGYAGFIMPIEVHFKNKEEPRKVCFTYDLFLNLEGNPPVNHLRCEKLTFNNPTTEFRYKLLRAGGVMVMPEGADTVSRPSPDYPMLPTIPLSAFSDPKKTKPSHGSKDANKESSKTSKPHKVTKEHRERPRKDSESKSSSKELEREQAKSSKDTSRKLGEGRLPKEEKAPPPKAAFKEPKMALKETKLESTSPKGGPPPPPPPPPRASSKRPATADSPKPSAKKQKKSSSKGSRSAPGTSPRTSSSSSFSDKKPAKDKSSTRGEKVKAESEPREAKKALEVEESNSEDEASFKSESAQSSPSNSSSSSDSSSDSDFEPSQNHSQGPLRSMVEDLQSEESDEDDSSSGEEAAGKTNPGRDSRLSFSDSESDNSADSSLPSREPPPPQKPPPPNSKVSGRRSPESCSKPEKILKKGTYDKAYTDELVELHRRLMALRERNVLQQIVNLIEETGHFNVTNTTFDFDLFSLDETTVRKLQSCLEAVAT
B7: Treacle protein (protein, UniProt Q13428 1-1488)
chain: MAEARKRRELLPLIYHHLLRAGYVRAAREVKEQSGQKCFLAQPVTLLDIYTHWQQTSELGRKRKAEEDAALQAKKTRVSDPISTSESSEEEEEAEAETAKATPRLASTNSSVLGADLPSSMKEKAKAETEKAGKTGNSMPHPATGKTVANLLSGKSPRKSAEPSANTTLVSETEEEGSVPAFGAAAKPGMVSAGQADSSSEDTSSSSDETDVEGKPSVKPAQVKASSVSTKESPARKAAPAPGKVGDVTPQVKGGALPPAKRAKKPEEESESSEEGSESEEEAPAGTRSQVKASEKILQVRAASAPAKGTPGKGATPAPPGKAGAVASQTKAGKPEEDSESSSEESSDSEEETPAAKALLQAKASGKTSQVGAASAPAKESPRKGAAPAPPGKTGPAVAKAQAGKREEDSQSSSEESDSEEEAPAQAKPSGKAPQVRAASAPAKESPRKGAAPAPPRKTGPAAAQVQVGKQEEDSRSSSEESDSDREALAAMNAAQVKPLGKSPQVKPASTMGMGPLGKGAGPVPPGKVGPATPSAQVGKWEEDSESSSEESSDSSDGEVPTAVAPAQEKSLGNILQAKPTSSPAKGPPQKAGPVAVQVKAEKPMDNSESSEESSDSADSEEAPAAMTAAQAKPALKIPQTKACPKKTNTTASAKVAPVRVGTQAPRKAGTATSPAGSSPAVAGGTQRPAEDSSSSEESDSEEEKTGLAVTVGQAKSVGKGLQVKAASVPVKGSLGQGTAPVLPGKTGPTVTQVKAEKQEDSESSEEESDSEEAAASPAQVKTSVKKTQAKANPAAARAPSAKGTISAPGKVVTAAAQAKQRSPSKVKPPVRNPQNSTVLARGPASVPSVGKAVATAAQAQTGPEEDSGSSEEESDSEEEAETLAQVKPSGKTHQIRAALAPAKESPRKGAAPTPPGKTGPSAAQAGKQDDSGSSSEESDSDGEAPAAVTSAQVIKPPLIFVDPNRSPAGPAATPAQAQAASTPRKARASESTARSSSSESEDEDVIPATQCLTPGIRTNVVTMPTAHPRIAPKASMAGASSSKESSRISDGKKQEGPATQVSKKNPASLPLTQAALKVLAQKASEAQPPVARTQPSSGVDSAVGTLPATSPQSTSVQAKGTNKLRKPKLPEVQQATKAPESSDDSEDSSDSSSGSEEDGEGPQGAKSAHTLGPTPSRTETLVEETAAESSEDDVVAPSQSLLSGYMTPGLTPANSQASKATPKLDSSPSVSSTLAAKDDPDGKQEAKPQQAAGMLSPKTGGKEAASGTTPQKSRKPKKGAGNPQASTLALQSNITQCLLGQPWPLNEAQVQASVVKVLTELLEQERKKVVDTTKESSRKGWESRKRKLSGDQPAARTPRSKKKKKLGAGEGGEASVSPEKTSTTSKGKAKRDKASGDVKEKKGKGSLGSQGAKDEPEEELQKGMGTVEGGDQSNPKSKKEKKKSDKRKKDKEKKEKKKKAKKASTKDSESPSQKKKKKKKKTAEQTV

No constants are given. Whether binding was seen depends on the method and setting. In cells and extracts the contact can be indirect. A yes stands for co-enrichment or nearness to the bait. Other partners may have been found.

The target of the assay is HBF (His6-biotinylation sequence-FLAG tag)-LYAR (human) (UniProt Q9NX58). The experiment in a line: affinity purification with mass spectrometry; HBF-LYAR as bait; sequential two-step pulldown (Ni-NTA pulldown, RNase A treatment, FLAG pulldown) from nuclear extract of HBF-LYAR-TO cells treated with Dox for 24 h; SDS-PAGE, in-gel digestion with trypsin and Lys-C, nano LC-MS/MS; T-REx 293 cells as control.
Consider B1, for which the binding result is reported as “binds”.
As to B2, the binding entry is listed as “binds”.
The same measure for B3: “binds”; for B4: “binds”.
Consider B5, for which the binding entry is reported as “binds”.
Consider B6, for which the binding entry was “binds”.
Consider B7, for which the binding result is “binds”.
